# Source: publication PMC6294559
# Sequences of proteins named here, by UniProt entry; tags and fusion partners are left off.
# UniProt Q9C5X9: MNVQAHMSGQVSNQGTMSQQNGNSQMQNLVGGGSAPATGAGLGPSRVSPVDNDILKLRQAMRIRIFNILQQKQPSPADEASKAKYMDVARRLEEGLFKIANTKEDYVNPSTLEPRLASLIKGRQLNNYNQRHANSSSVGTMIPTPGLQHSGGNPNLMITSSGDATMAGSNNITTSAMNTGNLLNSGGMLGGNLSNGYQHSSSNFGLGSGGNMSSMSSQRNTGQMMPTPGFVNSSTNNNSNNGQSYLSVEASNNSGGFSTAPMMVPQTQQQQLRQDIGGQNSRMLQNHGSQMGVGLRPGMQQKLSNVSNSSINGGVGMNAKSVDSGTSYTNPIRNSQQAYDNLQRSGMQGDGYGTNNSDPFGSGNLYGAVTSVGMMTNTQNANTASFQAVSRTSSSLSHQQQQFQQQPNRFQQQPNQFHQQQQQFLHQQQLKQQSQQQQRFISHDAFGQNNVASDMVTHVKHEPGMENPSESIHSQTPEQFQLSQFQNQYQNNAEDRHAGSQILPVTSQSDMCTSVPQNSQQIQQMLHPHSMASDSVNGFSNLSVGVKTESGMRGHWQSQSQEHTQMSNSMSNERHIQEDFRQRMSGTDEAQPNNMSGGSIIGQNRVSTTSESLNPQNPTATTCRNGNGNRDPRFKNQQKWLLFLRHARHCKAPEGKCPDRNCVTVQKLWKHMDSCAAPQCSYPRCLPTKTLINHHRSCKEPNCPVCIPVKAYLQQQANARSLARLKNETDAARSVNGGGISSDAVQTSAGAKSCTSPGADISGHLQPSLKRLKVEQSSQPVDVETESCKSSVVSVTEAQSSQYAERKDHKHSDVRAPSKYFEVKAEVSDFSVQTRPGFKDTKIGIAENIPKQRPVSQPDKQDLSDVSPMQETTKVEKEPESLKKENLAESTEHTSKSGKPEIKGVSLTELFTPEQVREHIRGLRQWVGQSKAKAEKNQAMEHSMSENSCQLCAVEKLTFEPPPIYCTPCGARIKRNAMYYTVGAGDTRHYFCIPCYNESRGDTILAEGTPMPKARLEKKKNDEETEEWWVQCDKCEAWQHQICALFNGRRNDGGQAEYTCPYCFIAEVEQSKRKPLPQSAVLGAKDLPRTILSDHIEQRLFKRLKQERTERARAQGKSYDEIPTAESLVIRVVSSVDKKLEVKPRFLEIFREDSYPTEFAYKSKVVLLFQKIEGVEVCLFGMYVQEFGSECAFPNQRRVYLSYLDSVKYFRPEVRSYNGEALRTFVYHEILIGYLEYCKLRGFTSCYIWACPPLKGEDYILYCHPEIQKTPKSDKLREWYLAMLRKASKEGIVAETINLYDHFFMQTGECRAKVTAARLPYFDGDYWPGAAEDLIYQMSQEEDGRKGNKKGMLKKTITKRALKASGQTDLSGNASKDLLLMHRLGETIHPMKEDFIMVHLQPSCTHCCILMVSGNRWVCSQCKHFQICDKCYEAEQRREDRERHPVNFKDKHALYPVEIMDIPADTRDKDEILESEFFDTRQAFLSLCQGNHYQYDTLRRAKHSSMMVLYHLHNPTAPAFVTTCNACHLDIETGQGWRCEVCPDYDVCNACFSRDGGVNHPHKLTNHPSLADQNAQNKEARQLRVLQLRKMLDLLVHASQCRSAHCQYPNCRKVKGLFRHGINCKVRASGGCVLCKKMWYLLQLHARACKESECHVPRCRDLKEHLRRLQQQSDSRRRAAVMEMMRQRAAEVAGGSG
# UniProt P93002: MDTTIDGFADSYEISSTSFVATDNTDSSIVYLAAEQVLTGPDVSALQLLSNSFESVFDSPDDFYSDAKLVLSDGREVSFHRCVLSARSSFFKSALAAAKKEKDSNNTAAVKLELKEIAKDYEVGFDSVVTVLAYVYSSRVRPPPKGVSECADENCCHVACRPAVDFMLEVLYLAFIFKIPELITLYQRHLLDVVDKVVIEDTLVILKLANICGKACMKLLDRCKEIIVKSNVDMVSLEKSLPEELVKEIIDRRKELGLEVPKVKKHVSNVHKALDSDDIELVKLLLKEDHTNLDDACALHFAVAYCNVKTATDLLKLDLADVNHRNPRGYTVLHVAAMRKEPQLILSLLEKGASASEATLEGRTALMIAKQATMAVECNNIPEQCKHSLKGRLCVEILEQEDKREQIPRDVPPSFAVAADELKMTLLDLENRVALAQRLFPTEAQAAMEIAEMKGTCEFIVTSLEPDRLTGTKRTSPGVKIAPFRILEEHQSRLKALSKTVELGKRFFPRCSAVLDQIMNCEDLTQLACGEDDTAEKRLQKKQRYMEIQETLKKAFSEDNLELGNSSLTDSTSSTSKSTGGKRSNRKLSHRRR
# These are yes or no findings as the source states them, for the method shown. In cells and extracts the contact can be indirect. Some entries that bind do so weakly or less than the wild type.
# Biological target: HAC1:HA fusion protein (Arabidopsis) (UniProt Q9C5X9)
# Test: co-IP; total proteins of 4-w-old transgenic Arabidopsis plants treated with DW or INA for 12 h (also after pathogen attack; also in tga2/5/6 and hac1/5 backgrounds); IP with α-HA agarose beads or α-GFP coupled to protein-A agarose, 4°C, 3 h; 50 mM Tris-HCl pH 7.5, 150 mM NaCl, 10 mM MgCl2, 5 mM EDTA, 10% glycerol; immunoblot
substance,measurement,value
NPR1:GFP (from UniProt P93002 1-593),binding,binds
